Measurements from the supplement of paper PMC10849652.
Some of the results follow.

Chains of the proteins cited; added tags and fusions are not shown. Lines headed by an entry give the natural chain unless they say otherwise; changes in a name come on top.
UniProt Q9H2M9: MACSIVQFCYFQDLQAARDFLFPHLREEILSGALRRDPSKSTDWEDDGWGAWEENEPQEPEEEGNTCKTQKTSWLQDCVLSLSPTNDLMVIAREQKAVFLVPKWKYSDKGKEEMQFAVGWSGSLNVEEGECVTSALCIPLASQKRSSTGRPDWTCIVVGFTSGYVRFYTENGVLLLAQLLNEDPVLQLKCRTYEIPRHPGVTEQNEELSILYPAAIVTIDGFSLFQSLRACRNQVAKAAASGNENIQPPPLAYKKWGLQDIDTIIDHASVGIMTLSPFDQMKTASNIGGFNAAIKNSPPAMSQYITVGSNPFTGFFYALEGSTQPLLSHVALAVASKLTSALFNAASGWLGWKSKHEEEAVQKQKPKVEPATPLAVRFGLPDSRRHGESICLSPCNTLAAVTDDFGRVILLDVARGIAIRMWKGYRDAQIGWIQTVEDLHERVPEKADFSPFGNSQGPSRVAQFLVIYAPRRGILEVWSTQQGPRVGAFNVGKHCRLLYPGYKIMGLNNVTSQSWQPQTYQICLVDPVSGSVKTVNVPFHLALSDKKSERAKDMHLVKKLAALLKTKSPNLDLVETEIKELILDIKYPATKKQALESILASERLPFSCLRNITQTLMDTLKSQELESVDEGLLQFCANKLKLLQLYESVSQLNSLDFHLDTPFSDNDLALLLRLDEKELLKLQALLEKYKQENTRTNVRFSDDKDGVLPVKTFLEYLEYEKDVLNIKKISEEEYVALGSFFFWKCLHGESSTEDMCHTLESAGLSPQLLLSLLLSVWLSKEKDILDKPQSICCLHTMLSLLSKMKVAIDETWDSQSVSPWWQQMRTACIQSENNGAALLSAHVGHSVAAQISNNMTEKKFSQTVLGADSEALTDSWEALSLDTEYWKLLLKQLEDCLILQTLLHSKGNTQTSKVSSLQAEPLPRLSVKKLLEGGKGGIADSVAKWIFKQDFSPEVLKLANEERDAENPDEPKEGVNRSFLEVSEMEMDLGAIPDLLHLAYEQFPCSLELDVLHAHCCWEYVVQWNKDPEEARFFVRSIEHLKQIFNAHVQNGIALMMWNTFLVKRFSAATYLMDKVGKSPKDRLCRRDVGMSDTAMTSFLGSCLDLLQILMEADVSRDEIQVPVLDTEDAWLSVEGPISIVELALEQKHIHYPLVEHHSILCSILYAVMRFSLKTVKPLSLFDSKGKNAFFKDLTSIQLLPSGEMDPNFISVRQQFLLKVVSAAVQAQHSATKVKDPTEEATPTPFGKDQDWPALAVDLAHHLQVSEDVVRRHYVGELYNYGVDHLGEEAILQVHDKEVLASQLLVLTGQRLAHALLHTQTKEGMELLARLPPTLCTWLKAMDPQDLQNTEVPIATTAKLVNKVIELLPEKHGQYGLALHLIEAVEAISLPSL
UniProt Q9HD47: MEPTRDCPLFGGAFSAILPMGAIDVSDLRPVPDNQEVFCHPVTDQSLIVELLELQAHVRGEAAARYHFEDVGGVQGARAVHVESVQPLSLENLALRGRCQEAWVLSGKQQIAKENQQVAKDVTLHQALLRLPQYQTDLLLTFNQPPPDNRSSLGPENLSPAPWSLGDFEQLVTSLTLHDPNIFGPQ
UniProt Q96B01: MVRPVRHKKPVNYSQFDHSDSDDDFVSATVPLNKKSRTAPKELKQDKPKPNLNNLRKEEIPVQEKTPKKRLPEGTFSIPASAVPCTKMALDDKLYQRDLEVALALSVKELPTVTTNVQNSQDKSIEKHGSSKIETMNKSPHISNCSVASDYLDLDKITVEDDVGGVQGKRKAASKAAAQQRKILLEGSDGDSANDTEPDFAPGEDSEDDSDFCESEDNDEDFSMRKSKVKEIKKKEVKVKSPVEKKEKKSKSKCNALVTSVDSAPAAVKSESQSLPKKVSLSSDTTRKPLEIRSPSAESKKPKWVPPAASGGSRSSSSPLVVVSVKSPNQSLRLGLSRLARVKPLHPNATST
UniProt P32322: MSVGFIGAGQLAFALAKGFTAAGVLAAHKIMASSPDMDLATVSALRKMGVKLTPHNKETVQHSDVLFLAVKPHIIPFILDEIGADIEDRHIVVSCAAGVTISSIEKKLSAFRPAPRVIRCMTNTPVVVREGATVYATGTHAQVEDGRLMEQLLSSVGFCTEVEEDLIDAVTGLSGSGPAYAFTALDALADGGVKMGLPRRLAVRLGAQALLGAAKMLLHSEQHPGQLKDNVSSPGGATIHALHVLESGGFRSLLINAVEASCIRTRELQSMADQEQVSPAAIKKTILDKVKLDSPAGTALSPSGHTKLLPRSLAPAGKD
UniProt Q86X10: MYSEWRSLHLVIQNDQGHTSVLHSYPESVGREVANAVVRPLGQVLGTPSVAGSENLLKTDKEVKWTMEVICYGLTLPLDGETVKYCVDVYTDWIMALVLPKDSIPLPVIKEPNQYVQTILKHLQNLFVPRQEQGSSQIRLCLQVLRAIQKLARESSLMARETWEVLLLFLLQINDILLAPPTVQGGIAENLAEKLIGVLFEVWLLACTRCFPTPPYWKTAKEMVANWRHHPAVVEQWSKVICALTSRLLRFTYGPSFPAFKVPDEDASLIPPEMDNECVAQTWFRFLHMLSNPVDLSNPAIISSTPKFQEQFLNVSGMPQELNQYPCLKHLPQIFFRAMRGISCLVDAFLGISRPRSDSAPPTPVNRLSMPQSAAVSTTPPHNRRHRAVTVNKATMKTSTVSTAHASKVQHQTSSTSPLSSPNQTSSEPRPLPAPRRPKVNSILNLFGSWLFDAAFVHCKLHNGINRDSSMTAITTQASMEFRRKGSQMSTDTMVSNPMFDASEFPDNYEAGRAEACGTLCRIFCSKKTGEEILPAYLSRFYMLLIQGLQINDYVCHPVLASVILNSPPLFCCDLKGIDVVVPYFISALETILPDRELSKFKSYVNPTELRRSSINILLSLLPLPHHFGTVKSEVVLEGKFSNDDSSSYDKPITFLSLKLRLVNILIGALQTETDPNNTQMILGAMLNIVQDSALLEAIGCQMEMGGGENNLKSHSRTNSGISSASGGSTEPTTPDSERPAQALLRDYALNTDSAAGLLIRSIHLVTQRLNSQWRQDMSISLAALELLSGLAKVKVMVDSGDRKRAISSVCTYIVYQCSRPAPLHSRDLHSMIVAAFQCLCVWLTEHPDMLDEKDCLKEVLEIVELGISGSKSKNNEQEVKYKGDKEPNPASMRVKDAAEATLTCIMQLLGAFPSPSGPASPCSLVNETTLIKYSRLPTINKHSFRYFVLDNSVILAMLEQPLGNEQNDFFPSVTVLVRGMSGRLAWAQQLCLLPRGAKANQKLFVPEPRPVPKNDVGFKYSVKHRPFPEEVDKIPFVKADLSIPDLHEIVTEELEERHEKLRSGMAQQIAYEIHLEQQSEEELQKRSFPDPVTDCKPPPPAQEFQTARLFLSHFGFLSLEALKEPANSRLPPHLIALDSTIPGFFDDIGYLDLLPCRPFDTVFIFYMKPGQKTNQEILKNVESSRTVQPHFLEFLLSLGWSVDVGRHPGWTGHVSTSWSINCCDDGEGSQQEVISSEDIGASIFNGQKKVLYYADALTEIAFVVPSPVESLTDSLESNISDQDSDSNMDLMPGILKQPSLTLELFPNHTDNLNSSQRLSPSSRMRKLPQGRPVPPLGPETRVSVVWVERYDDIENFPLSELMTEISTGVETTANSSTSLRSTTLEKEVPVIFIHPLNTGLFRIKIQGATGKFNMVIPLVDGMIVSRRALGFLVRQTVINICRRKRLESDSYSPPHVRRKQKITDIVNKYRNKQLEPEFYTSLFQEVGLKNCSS
UniProt O75943: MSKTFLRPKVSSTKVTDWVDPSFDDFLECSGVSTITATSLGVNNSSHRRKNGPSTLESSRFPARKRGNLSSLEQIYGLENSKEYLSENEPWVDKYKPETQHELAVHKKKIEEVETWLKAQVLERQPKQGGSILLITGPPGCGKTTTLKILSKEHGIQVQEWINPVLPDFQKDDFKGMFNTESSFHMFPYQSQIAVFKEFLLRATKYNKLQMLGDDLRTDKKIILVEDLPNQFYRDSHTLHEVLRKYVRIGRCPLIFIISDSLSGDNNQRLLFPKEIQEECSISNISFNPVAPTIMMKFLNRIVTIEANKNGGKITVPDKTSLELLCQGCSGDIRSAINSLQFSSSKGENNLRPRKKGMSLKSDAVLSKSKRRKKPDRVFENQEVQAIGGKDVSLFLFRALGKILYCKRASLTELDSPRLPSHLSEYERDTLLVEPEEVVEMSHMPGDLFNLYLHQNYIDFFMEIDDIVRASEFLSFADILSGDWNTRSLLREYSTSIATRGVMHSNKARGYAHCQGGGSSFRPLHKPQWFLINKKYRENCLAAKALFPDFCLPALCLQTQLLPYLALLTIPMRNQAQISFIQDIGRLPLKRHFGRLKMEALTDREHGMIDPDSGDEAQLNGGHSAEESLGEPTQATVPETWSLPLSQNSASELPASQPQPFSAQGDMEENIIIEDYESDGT
UniProt O95716: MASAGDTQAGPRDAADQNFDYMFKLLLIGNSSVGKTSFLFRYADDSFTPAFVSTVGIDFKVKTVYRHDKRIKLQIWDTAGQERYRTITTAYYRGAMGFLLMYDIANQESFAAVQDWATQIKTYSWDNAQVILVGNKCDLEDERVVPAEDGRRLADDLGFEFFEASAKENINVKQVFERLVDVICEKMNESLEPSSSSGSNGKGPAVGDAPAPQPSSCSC
UniProt Q6K0P9: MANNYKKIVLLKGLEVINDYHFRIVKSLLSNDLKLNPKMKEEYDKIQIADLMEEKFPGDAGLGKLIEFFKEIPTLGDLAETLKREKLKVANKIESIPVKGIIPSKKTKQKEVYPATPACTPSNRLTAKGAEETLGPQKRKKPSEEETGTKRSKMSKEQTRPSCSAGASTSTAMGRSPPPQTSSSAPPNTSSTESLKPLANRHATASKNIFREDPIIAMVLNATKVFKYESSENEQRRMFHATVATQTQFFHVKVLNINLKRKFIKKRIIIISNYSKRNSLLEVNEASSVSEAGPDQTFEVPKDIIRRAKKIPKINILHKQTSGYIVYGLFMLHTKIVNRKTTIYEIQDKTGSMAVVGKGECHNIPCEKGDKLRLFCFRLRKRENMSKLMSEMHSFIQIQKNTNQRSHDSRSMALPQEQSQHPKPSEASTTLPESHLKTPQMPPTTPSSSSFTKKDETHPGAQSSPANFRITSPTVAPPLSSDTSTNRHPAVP
UniProt Q96DA2: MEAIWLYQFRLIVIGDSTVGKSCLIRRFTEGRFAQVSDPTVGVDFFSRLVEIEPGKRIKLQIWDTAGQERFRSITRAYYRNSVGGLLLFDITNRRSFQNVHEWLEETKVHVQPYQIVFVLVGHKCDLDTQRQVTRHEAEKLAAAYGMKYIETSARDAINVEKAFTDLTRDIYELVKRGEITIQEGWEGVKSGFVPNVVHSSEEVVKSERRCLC
UniProt P20337: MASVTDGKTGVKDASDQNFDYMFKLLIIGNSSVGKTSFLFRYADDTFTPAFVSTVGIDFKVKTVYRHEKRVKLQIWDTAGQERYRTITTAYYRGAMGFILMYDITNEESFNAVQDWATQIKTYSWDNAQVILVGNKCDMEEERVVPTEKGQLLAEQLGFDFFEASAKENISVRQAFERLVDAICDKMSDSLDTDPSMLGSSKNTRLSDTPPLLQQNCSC
UniProt Q4G0T1: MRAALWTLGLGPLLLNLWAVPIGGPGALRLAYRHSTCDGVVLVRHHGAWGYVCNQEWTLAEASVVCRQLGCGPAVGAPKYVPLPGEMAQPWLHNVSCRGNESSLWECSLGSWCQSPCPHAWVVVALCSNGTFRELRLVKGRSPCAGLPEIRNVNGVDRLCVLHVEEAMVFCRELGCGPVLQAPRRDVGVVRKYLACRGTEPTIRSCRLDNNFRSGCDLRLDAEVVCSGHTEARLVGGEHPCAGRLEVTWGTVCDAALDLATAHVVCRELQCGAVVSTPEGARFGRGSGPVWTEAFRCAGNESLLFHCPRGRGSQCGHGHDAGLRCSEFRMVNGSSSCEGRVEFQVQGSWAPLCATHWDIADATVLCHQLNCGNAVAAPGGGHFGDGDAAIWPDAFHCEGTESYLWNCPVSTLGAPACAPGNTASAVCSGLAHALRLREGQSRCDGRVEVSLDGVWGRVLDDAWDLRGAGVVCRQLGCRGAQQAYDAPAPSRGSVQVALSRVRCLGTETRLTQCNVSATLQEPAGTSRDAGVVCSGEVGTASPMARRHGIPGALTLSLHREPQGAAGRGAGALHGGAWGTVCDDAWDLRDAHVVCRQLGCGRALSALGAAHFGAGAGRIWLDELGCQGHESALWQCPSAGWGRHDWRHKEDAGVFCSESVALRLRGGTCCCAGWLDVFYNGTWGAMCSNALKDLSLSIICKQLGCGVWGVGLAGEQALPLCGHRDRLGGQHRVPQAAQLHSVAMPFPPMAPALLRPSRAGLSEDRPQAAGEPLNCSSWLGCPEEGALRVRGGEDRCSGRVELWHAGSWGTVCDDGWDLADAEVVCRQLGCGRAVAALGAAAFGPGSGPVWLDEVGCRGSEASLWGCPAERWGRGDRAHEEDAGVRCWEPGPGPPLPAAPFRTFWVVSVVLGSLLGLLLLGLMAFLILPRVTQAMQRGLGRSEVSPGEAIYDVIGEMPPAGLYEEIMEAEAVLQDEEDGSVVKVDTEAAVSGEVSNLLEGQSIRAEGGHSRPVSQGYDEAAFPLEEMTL

How the values were obtained:
Assay in all cases: log2 fold change, soluble protein after heating vs DMSO (PISA); higher = thermal stabilisation; K562 lysate, 10 uM; active = over 0.2 and 3.5 SD of the protein, either way, in both replicates (recomputed)
erlotinib = compound: C#Cc1cccc(Nc2ncnc3cc(OCCOC)c(OCCOC)cc23)c1 [erlotinib]
In short: (§1)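 A 30 min treatment with 10 μM compound was applied to crude K562 extract at 1 mg/mL protein in PBS pH 7.4 with 1 mM MgCl2. Heating for 3 min spanned 48°C-58°C, after which aliquots were pooled, adjusted to 0.5% NP-40 at 4°C and spun at 21,000xg for 90 min. TMTpro 16plex LC-MS/MS of the supernatant, with channel sums equalised, gave values recorded as log-two fold change in thermal stability against solvent controls, from duplicates.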

[1] = compound: C/C(=N\NC(=O)C1=CC(=CC=C1)S(=O)(=O)N2CCOCC2)/C3=C(C=CC(=C3)Cl)O
In short: as §1

[2] = compound: C1=CC(=CC=C1C2=NC3=C(N2)C=C(C=C3)C(=O)N)OC4=CC=C(C=C4)Cl
In short: as §1

[3] = compound: C1=CC2=C(C=CC(=C2)/C=C\3/C(=O)NC(=NCC4=CC=CS4)S3)N=C1
In short: as §1

[4] = compound: C1=CC2=NC=CN=C2C=C1/C=C/3\C(=O)NC(=O)S3
In short: as §1

[5] = compound: C1=CC=C(C=C1)C2=NC(=C(N2)C3=CC=NC=C3)C4=CC(=C(C=C4)Cl)O
In short: as §1

[6] = compound: C1=CC=C2C(=C1)C3=NNC4=CC=CC(=C43)C2=O
In short: as §1

[7] = compound: C1CCN(C1)C(=O)NC2=CC=CC(=C2)NC3=NC=C(C(=N3)NCCC4=CN=CN4)Br
In short: as §1

[8] = compound: C1CN(CCC1(CC2=CC=C(C=C2)Cl)N)C3=NC=NC4=C3C=CN4
In short: as §1

IRAK-1-4 Inhibitor I = compound: C1COCCN1CCN2C3=CC=CC=C3N=C2NC(=O)C4=CC(=CC=C4)[N+](=O)[O-] [IRAK-1-4 Inhibitor I]
In short: as §1

ibrutinib = compound: C=CC(=O)N1CCC[C@@H](n2nc(-c3ccc(Oc4ccccc4)cc3)c3c(N)ncnc32)C1 [ibrutinib]
In short: as §1

[9] = compound: CC(=O)c1cnc2ccc(-c3cc(Cl)c(O)c(Cl)c3)nc2c1N[C@H]1CC[C@H](CN(C)C)CC1
In short: as §1

ralimetinib = compound: CC(C)(C)Cn1c(N)nc2ccc(-c3[nH]c(C(C)(C)C)nc3-c3ccc(F)cc3)nc21 [ralimetinib]
In short: as §1

[10] = compound: CC(C)(O)CC(=O)NCCn1ccc2ncnc(Nc3ccc(Oc4cccc(C(F)(F)F)c4)c(Cl)c3)c21
In short: as §1

[11] = compound: CC(C)C1=C2N=C(C=C(N2N=C1)NCC3=CC=CC=C3)NCCCCCCN
In short: as §1

[12] = compound: CC1=C(C(CC(=O)N1)C2=CC=C(C=C2)C(F)(F)F)C(=O)NC3=C(C=C4C(=C3)C=NN4)F
In short: as §1

[13] = compound: CC1=C(C2=C(C=C1)C(=O)C3=CC=CC=C3N2CCCN)C
In short: as §1

[14] = compound: CC1=C(C=C(C=C1)NC(=O)C2=CC(=CC=C2)C(C)(C)C#N)NC3=CC4=C(C=C3)N=CN(C4=O)C
In short: as §1

[15] = compound: CC1=C(C=C(C=C1)NC(=O)C2=CC(=CC=C2)N(C)C)NC(=O)C3=CC=C(C=C3)O
In short: as §1

[16] = compound: CC1=CC=C(C=C1)SC2=C3C=C(SC3=CN=C2)C(=O)N
In short: as §1

Measured: log2 fold change

RAB3GAP2 (UniProt Q9H2M9)
inactive: erlotinib 0.03 | [1] 0.01 | [2] -0.033 | [3] 0.013 | [4] -0.004 | [5] 0.008 | [6] 0.001 | [7] -0.02 | [8] 0.003 | IRAK-1-4 Inhibitor I -0.037 | ibrutinib -0.019 | [9] -0.021 | ralimetinib -0.005 | [10] -0.024 | [11] 0.007 | [12] -0.006 | [13] 0.019 | [14] -0.019 | [15] -0.001 | [16] 0.006

RANGRF (UniProt Q9HD47)
inactive: erlotinib -0.182 | [2] 0.116 | [5] -0.115 | IRAK-1-4 Inhibitor I 0.056 | [9] 0.009 | ralimetinib 0.082 | [10] -0.053 | [11] 0.219 | [13] 0.062 | [14] 0.02 | [15] -0.085 | [16] 0.136

RAD51AP1 (UniProt Q96B01)
inactive: erlotinib 0.006 | [2] -0.025 | [4] -0.051 | [5] 0.041 | [7] -0.023 | [8] 0.11 | IRAK-1-4 Inhibitor I -0.039 | ibrutinib 0.067 | [9] 0.042 | ralimetinib -0.043 | [10] -0.059 | [11] -0.065 | [12] -0.009 | [13] -0.109 | [14] 0.029 | [15] 0.067 | [16] 0.017

Quoted from the entries so far (2 entries):
RANGRF (UniProt Q9HD47)
inactive: erlotinib -0.182 | [2] 0.116 | [5] -0.115 | IRAK-1-4 Inhibitor I 0.056 | [9] 0.009 | ralimetinib 0.082 | [10] -0.053 | [11] 0.219 | [13] 0.062 | [14] 0.02 | [15] -0.085 | [16] 0.136

RAD51AP1 (UniProt Q96B01)
inactive: erlotinib 0.006 | [2] -0.025 | [4] -0.051 | [5] 0.041 | [7] -0.023 | [8] 0.11 | IRAK-1-4 Inhibitor I -0.039 | ibrutinib 0.067 | [9] 0.042 | ralimetinib -0.043 | [10] -0.059 | [11] -0.065 | [12] -0.009 | [13] -0.109 | [14] 0.029 | [15] 0.067 | [16] 0.017

The listing continues:

RAB11FIP4 isoform 2 (UniProt Q86YS3)
inactive: [5] 0.147 | IRAK-1-4 Inhibitor I 0.113 | ralimetinib -0.245 | [10] 0.007 | [15] -0.098

PYCR1 isoform 3 (UniProt P32322)
inactive: erlotinib -0.008 | [1] 0.04 | [3] -0.022 | [5] -0.01 | [6] -0.004 | [8] -0.007 | IRAK-1-4 Inhibitor I 0.014 | ibrutinib 0.015 | [9] 0 | ralimetinib 0.002 | [10] -0.02 | [11] -0.016 | [12] 0.009 | [13] -0.001 | [14] 0.001 | [15] -0.015 | [16] -0.043

RALGAPB isoform 3 (UniProt Q86X10)
inactive: [4] -0.146 | [7] -0.119 | [8] 0 | ibrutinib 0.106 | [13] -0.087

RAD17 (UniProt O75943)
active: [6] -0.458
inactive: [1] 0.005 | [3] -0.1 | [4] 0.014 | [5] -0.047 | [7] 0.031 | [8] 0.019 | IRAK-1-4 Inhibitor I 0.021 | ibrutinib 0.023 | ralimetinib 0.054 | [10] 0.041 | [12] 0.026 | [13] -0.029 | [14] -0.041 | [15] 0.049

RAB3D (UniProt O95716)
inactive: erlotinib -0.007 | [1] -0.04 | [2] -0.076 | [3] -0.123 | [5] -0.085 | [6] -0.067 | [7] -0.207 | [8] 0.192 | IRAK-1-4 Inhibitor I -0.025 | [9] -0.037 | ralimetinib -0.133 | [10] -0.041 | [11] 0.093 | [13] 0.101 | [14] -0.162 | [15] -0.025 | [16] 0

PYHIN1 (UniProt Q6K0P9)
inactive: [5] 0.084 | IRAK-1-4 Inhibitor I -0.137 | [9] -0.051 | ralimetinib -0.004 | [10] 0.1 | [12] 0.053 | [13] -0.152 | [14] -0.22 | [15] -0.047 | [16] 0.117

RAD54B (UniProt Q9Y620)
inactive: [1] -0.269 | [3] -0.039 | [5] -0.059 | [6] 0.025 | [7] 0.09 | [8] 0.037 | IRAK-1-4 Inhibitor I 0.029 | ralimetinib 0.051 | [10] 0.047 | [12] -0.014 | [13] -0.039 | [14] -0.186 | [15] 0.017

RAB39B (UniProt Q96DA2)
inactive: [4] -0.027 | ibrutinib 0.128

RAD23A isoform 3 (UniProt P54725)
inactive: erlotinib 0.085 | [2] 0.158 | [5] -0.352 | IRAK-1-4 Inhibitor I 0.042 | [9] -0.004 | ralimetinib -0.013 | [10] 0.026 | [11] 0.112 | [12] 0.143 | [15] -0.192 | [16] -0.037

RANBP3 isoform 2 (UniProt Q9H6Z4)
inactive: [1] -0.103 | [3] -0.148 | [4] -0.017 | [5] -0.044 | [6] -0.058 | [7] 0.012 | [8] -0.076 | IRAK-1-4 Inhibitor I 0.023 | ibrutinib 0.07 | [9] 0.027 | ralimetinib 0.067 | [10] -0.016 | [12] 0.008 | [13] 0.013 | [14] 0.01 | [15] 0.075 | [16] -0.001

RAI1 (UniProt Q7Z5J4)
inactive: [7] -0.159 | [8] 0.088 | [14] 0.109

RAP1GDS1 isoform 4 (UniProt P52306)
inactive: [4] 0.063 | ibrutinib 0.004 | [9] 0.03 | [16] -0.055

QSER1, A0A3B3IRW6
inactive: erlotinib -0.056 | [1] 0.025 | [2] 0.054 | [3] -0.057 | [5] -0.006 | [6] 0.059 | [7] 0.002 | [8] -0.046 | IRAK-1-4 Inhibitor I -0.014 | [9] -0.047 | ralimetinib -0.014 | [10] -0.021 | [11] -0.009 | [12] -0.001 | [13] 0.037 | [14] 0.009 | [15] 0.087 | [16] -0.087

RAB3B (UniProt P20337)
inactive: [14] 0.007

RAB29 (UniProt O14966)
inactive: erlotinib -0.086 | [2] 0.051 | [5] 0.043 | IRAK-1-4 Inhibitor I 0.11 | ralimetinib -0.052 | [10] 0.083 | [11] 0.066 | [13] -0.119 | [15] -0.071

NA (UniProt Q4G0T1)
active: [2] 0.348
inactive: erlotinib -0.178 | [5] 0.017 | IRAK-1-4 Inhibitor I 0.002 | ralimetinib 0.016 | [10] -0.096 | [11] -0.119 | [13] -0.061 | [14] -0.158 | [15] -0.151

RACK1 (UniProt D6RF23)
inactive: [1] -0.063 | [3] 0 | [4] -0.039 | [6] -0.126 | [7] 0 | [8] -0.099 | ibrutinib 0.066 | [12] 0.014

R3HDM2 (UniProt B5MCU0)
inactive: erlotinib -0.013 | [2] -0.065 | [5] 0.112 | [7] -0.014 | [8] 0.159 | IRAK-1-4 Inhibitor I 0.068 | ralimetinib -0.08 | [10] 0.074 | [11] 0.229 | [14] -0.009 | [15] 0.034

RAD54L (UniProt Q92698)
inactive: erlotinib -0.026 | [2] -0.005 | [4] -0.072 | [5] -0.071 | IRAK-1-4 Inhibitor I 0.02 | ibrutinib -0.081 | [9] 0.035 | ralimetinib -0.062 | [10] -0.224 | [11] 0.085 | [12] 0 | [13] 0.039 | [15] 0.054 | [16] 0.059
